Reference: article PMC9574515
Results are given in words; binding and its absence hold for the method and conditions named. Binding seen in cells or lysates may run through a third protein. These calls come from enrichment with a bait or labelling near it, and not all partners need be listed. For some of these results: No binding means not detected with the bait.

Protein sequences, listed by entry. Tags and fused reporters are not part of them.
UniProt Q9UNE7: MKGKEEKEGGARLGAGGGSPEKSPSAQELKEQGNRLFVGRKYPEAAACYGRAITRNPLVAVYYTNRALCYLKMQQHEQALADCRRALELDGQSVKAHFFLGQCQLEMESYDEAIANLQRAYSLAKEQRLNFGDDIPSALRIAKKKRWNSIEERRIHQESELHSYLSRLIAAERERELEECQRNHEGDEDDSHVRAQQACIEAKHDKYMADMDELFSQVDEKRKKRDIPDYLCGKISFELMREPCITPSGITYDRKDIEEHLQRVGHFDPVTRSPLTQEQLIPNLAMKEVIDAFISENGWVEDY
UniProt Q9UKJ5: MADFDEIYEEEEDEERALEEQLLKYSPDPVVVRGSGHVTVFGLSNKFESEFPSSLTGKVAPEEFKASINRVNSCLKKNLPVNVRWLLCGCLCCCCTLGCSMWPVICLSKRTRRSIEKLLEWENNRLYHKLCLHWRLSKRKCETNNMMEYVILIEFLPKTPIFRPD
UniProt Q64433: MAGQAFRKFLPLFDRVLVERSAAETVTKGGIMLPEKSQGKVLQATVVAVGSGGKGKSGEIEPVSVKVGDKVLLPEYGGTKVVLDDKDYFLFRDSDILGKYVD
UniProt Q9WUD1: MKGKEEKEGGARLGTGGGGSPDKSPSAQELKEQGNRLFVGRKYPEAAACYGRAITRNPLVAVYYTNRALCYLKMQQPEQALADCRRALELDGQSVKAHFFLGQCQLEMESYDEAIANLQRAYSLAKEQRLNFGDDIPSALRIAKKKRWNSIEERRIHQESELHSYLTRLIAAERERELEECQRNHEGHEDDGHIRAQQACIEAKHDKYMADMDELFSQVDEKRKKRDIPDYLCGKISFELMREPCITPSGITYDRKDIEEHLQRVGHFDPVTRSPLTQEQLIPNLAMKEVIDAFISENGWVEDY
UniProt Q9D9G3: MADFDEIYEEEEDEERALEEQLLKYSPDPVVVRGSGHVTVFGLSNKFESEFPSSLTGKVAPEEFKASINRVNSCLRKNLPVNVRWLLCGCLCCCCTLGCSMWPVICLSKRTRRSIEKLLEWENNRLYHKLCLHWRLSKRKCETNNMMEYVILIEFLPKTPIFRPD

Experiments:
[1] = biological target: STUB1-V5 (human (from the RefSeq entry NM_005861.3 and the capital gene symbol)) (UniProt Q9UNE7); assay: affinity purification with mass spectrometry; STUB1 IP in Chic2 KO 32D cells compared to STUB1 IP in Chic2 WT 32D cells, n = 4 replicates
[2] = biological target: STUB1-V5 (human (from the RefSeq entry NM_005861.3 and the capital gene symbol)) (UniProt Q9UNE7); assay: affinity purification with mass spectrometry; anti-V5 IP of overexpressed V5-tagged STUB1 or CHIC2 from 32D cell lysates (NP40 lysis buffer), compared to Luciferase control IP, n = 4 replicates, LC-MS
[3] = biological target: V5-CHIC2 (human (from the RefSeq entry NM_012110.3 and the capital gene symbol)) (UniProt Q9UKJ5); assay: as above
[4] = biological target: V5-CHIC2 (human (from the RefSeq entry NM_012110.3 and the capital gene symbol)) (UniProt Q9UKJ5); assay: affinity purification with mass spectrometry; CHIC2 IP in Stub1 KO 32D cells compared to CHIC2 IP in Stub1 WT 32D cells, n = 4 replicates

Row | Molecule | binding [1] | binding [2] | binding [3] | binding [4]
1 | Hspe1 (from UniProt Q64433 1-102) | no binding (only in Chic2 KO 32D cells) | binds |  | 
2 | endogenous Stub1 (from UniProt Q9WUD1 1-304) (enzyme) |  |  | binds | 
3 | endogenous Chic2 (from UniProt Q9D9G3 1-165) |  | binds |  | 
4 | Itm2b (protein, UniProt O89051 1-266) MVKVTFNSALAQKEAKKDEPKSSEEALIVPPDAVAVDCKDPGDVVPVGQRRAWCWCMCFGLAFMLAGVILGGAYLYKYFALQPDDVYYCGLKYIKDDVILNEPSADAPAARYQTIEENIKIFEEDAVEFISVPVPEFADSDPANIVHDFNKKLTAYLDLNLDKCYVIPLNTSIVMPPKNLLELLINIKAGTYLPQSYLIHEHMVITDRIENVDNLGFFIYRLCHDKETYKLQRRETIRGIQKREASNCFTIRHFENKFAVETLICS |  |  | binds | 
5 | Ifitm2 (protein, UniProt Q99J93 1-144) MSHNSQAFLSTNAGLPPSYETIKEEYGVTELGEPSNSAVVRTTVINMPREVSVPDHVVWSLFNTLFFNACCLGFVAYAYSVKSRDRKMVGDVVGAQAYASTAKCLNISSLIFSILMVIICIIIFSTTSVVVFQSFAQRTPHSGF |  |  | binds | 
6 | Fcgr1 (receptor, UniProt P26151 25-404) EVVNATKAVITLQPPWVSIFQKENVTLWCEGPHLPGDSSTQWFINGTAVQISTPSYSIPEASFQDSGEYRCQIGSSMPSDPVQLQIHNDWLLLQASRRVLTEGEPLALRCHGWKNKLVYNVVFYRNGKSFQFSSDSEVAILKTNLSHSGIYHCSGTGRHRYTSAGVSITVKELFTTPVLRASVSSPFPEGSLVTLNCETNLLLQRPGLQLHFSFYVGSKILEYRNTSSEYHIARAEREDAGFYWCEVATEDSSVLKRSPELELQVLGPQSSAPVWFHILFYLSVGIMFSLNTVLYVKIHRLQREKKYNLEVPLVSEQGKKANSFQQVRSDGVYEEVTATASQTTPKEAPDGPRSSVGDCGPEQPEPLPPSDSTGAQTSQS |  |  | binds | no binding (only in Stub1 KO 32D cells)
7 | Lmnb1 (protein, UniProt P14733 1-588) MATATPVQQQRAGSRASAPATPLSPTRLSRLQEKEELRELNDRLAVYIDKVRSLETENSALQLQVTEREEVRGRELTGLKALYETELADARRALDDTARERAKLQIELGKFKAEHDQLLLNYAKKESDLSGAQIKLREYEAALNSKDAALATALGDKKSLEGDLEDLKDQIAQLEASLSAAKKQLADETLLKVDLENRCQSLTEDLEFRKNMYEEEINETRRKHETRLVEVDSGRQIEYEYKLAQALHEMREQHDAQVRLYKEELEQTYHAKLENARLSSEMNTSTVNSAREELMESRMRIESLSSQLSNLQKESRACLERIQELEDMLAKERDNSRRMLSDREREMAEIRDQMQQQLSDYEQLLDVKLALDMEISAYRKLLEGEEERLKLSPSPSSRVTVSRASSSRSVRTTRGKRKRVDVEESEASSSVSISHSASATGNVCIEEIDVDGKFIRLKNTSEQDQPMGGWEMIRKIGDTSVSYKYTSRYVLKAGQTVTVWAANAGVTASPPTDLIWKNQNSWGTGEDVKVILKNSQGEEVAQRSTVFKTTIPEEEEEEEEEPIGVAVEEERFHQQGAPRASNKSCAIM | no binding (only in Chic2 KO 32D cells) | binds |  | 
